From PubChem BioAssay AID488966 (Southern Research Specialized Biocontainment Screening …, 2010)
“And” between values parts separate entries of the source, which are not always exact repeats. Equal entries are not always repeated. Screen size: about 340,000 compounds; about 55 (0.02%) were called active. Inconclusive means that the source gave no clear call. Such entries were picked first, then a sample of the others.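 Rule for the calls: active = phage lysis inhibition, versus mean bacterial control, above a set limit; inconclusive = no clear call, values can overlap the other calls; inactive = the rest.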

Test: protection from phage-mediated lysis, alamar blue read-out – E. coli UTI89, K1F phage, bacterial capsule biogenesis inhibitors (AID 488966);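 note: capsule biogenesis inhibitors block K1F phage lysis so surviving cells raise fluorescence; higher fluorescence means more inhibition of phage lysis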
Details: 2 h; inhibition: at 100 µM, active compounds read high unless noted; series mostly up to 300 µM

Row | Structure (SMILES) | inhibition
1 | COc1ccccc1-c1nnc(SCC(=O)NC2CCCCC2)n1N | inconclusive: 19.3%
2 | COc1ccc(NC(=O)C(C)N2c3cccc4cccc(c34)S2(=O)=O)cc1 (centres undefined) | inactive: 4.61%
3 | O=C(c1ccc(F)cc1)N1CCC2(CC1)NCCc1[nH]cnc12 | inconclusive: 21.3%
4 | O=c1[nH]c(=S)[nH]cc1Oc1ccccc1 | inconclusive: 71.2%
5 | Cc1ccc2nc(N3CCN(S(=O)(=O)c4ccc(C)c(Cl)c4)CC3)c(C#N)cc2c1 | inconclusive: 17.3%
6 | CCC1(C)Cc2c(sc3nnn(CC(=O)Nc4ccc(Cl)cc4)c(=O)c23)CO1 (centres undefined) | inconclusive: 20.2%
7 | Cc1ccc(C(=O)NNC(=S)NC(=O)c2ccc(Cl)cc2Cl)cc1 | inconclusive: 7.92%
8 | CCSc1ccccc1C(=O)Nc1ccc([N+](=O)[O-])cc1OC | inactive: -0.1%
9 | Cc1ccc(S(=O)(=O)N2CCN(c3ccccc3)CC2)cc1 | inconclusive: 18.8%
10 | S=C(Nc1ccc(Cl)cc1)c1nc2ccccc2[nH]1 | inconclusive: 17%
11 | CCCCOc1ccc(-c2cc(C(=O)NNC(=S)NCC)c3ccccc3n2)cc1 | inconclusive: 16.7%
12 | CCOC(=O)C(Cc1ccc(O)cc1)NC(=O)CNC(=O)C(CC(C)C)NC(=O)OC(C)(C)C (centres undefined) | inactive: 4.94%
13 | COc1cc2c(cc1OC)C(C)N(C(=O)c1cc3c(s1)-c1ccccc1OC3)CC2 (centres undefined) | inconclusive: 15.3%
14 | N#Cc1c(N)nc(Sc2ccc(Cl)cc2)c(C#N)c1-c1ccccc1Cl | inconclusive: 20.7%
15 | CCOc1cc(C2NC(=O)c3ccccc3O2)ccc1OC(C)C (centres undefined) | inactive: 2.06%
16 | CC1CCN(CC(=O)Nc2nccs2)CC1 | inconclusive: 16%
17 | O=C(c1cc2ccccc2o1)N1CCN(c2ccccn2)CC1 | inactive: 0.07%
18 | O=C(COC(=O)c1ccccc1[N+](=O)[O-])Nc1cccnc1Cl | inactive: 0.32% [at 50 µM, active compounds read high]
19 | COC(=O)c1cc(OC)c(OC)cc1NC(=O)CN1CCOCC1 | inactive: 1.47%
20 | CN(C)CCNC(=O)/C(=C/c1cccc([N+](=O)[O-])c1)NC(=O)c1ccccc1 | inconclusive: 20.2%
21 | O=C(CSc1nc2c(cnn2-c2ccccc2)c(=O)[nH]1)NC1CCS(=O)(=O)C1 (centres undefined) | inactive: -0.1%
22 | O=C(NC(Nc1nc2ccc([N+](=O)[O-])cc2s1)(C(F)(F)F)C(F)(F)F)c1ccccc1 | inconclusive: 15.7%
23 | CC1=C(C(=O)N(C)CCC#N)C2(CCCCC2)OC1=O | inconclusive: 17.6%
24 | CC(C)C[C@H](N)c1cn([C@@H](Cc2cc3ccccc3[nH]2)C(=O)N2CCNCC2)nn1 | inconclusive: 15.6%
25 | CC(=O)Nc1cccc(-c2nnc(SCC(=O)N3CCCCC3)n2C)c1 | inactive: 0.94%
26 | Cc1ccc(NC(=O)CN(C)C(=O)Cn2nnc(-c3ccccc3C)n2)cc1 | inactive: -2.28%
27 | COc1ccc(N2C(=O)C(CC(=O)Nc3ccccc3)N(Cc3cccs3)C2=O)cc1 (centres undefined) | inactive: -4.46%

Row | Structure (SMILES) | inhibition
28 | COc1cccc(C2C3=C(CC(C)(C)CC3=O)Nc3cc4c(cc32)OCO4)c1 (centres undefined) | inactive: 2.26%
29 | CC(C)(C)c1ccc(OCC(O)CN(CCO)CC(O)Cn2ccc3ccccc32)cc1 (centres undefined) | inactive: 0.2%
30 | CCOC(=O)Cn1c(=N)n(CCOc2ccc3ccccc3c2)c2ccccc21 | inconclusive: 16.9%
31 | O=[N+]([O-])c1ccc(N2CCNCC2)cc1Sc1nc2ccccc2[nH]1 | inconclusive: 15.1%
32 | CC1CCC2(CC1)NC(=O)N(CC(=O)Nc1cc(S(=O)(=O)N3CCCC3)ccc1Cl)C2=O (centres undefined) | inconclusive: 16.7%
33 | COc1cc(C(=O)N/N=C/c2ccc(OC(=O)c3cccc(C)c3)c(OC)c2)ccc1O | inconclusive: 9.59% [at 50 µM, active compounds read high]
34 | Cc1ccc2nc(-c3ccc(NC(=O)c4ccco4)cc3)[nH]c2c1 | inconclusive: 26.6%
35 | COc1ccc(/C=C/C(=O)NC(=S)NNC(=O)Cc2cccs2)cc1OC | inconclusive: 15%
36 | COc1ccc(CCC(C)NCc2ccc(F)cc2)cc1 (centres undefined) | inconclusive: 19.7%
37 | COc1cc(O)c(C=Nc2ccccc2NS(=O)(=O)c2ccc(C)cc2)c(OC)c1 | inconclusive: 16%
38 | O=c1c2c(nc3nc(COc4ccccc4)[nH]n13)CCC2 | inconclusive: 17%
39 | O=c1[nH]c(-c2ccccc2)nnc1-c1ccccc1 | inconclusive: 0.765% [at 50 µM, active compounds read high]
40 | CC(=O)CCc1c(C)c2cc(C)ccc2[nH]c1=O | inconclusive: 15.7%
41 | COc1ccc(Cc2nnc(SC)[nH]c2=O)cc1OC | inconclusive: 21.7%
42 | CCOc1ccc(OCC(O)CNC2CCN(Cc3ccccc3)CC2)cc1 (centres undefined) | inconclusive: 18.6%
43 | O=C(N/N=C/c1ccc(O)cc1O)c1ccc(NC(=O)C2CCCCC2)cc1 | inconclusive: 34% [at 50 µM, active compounds read high]
44 | OC(COc1ccccc1Cl)CN1CCN(CC(O)COc2ccccc2Cl)CC1 (centres undefined) | inconclusive: 16.5%
45 | COc1ccc(NC(=S)N/C(=N/CS(=O)(=O)c2ccccc2)c2ccccc2)cc1 | inconclusive: 20.4%
46 | CC(C)NC(=O)COc1cccc2ccccc12 | inactive: 1.21%
47 | CCC(CC)NC(=O)c1cc(OC)c(OC)cc1[N+](=O)[O-] | inactive: 0.4%
48 | Cc1ccccc1-c1cc2nc(C)c(Cl)c(=O)n2[nH]1 | inconclusive: 16.3%
49 | COc1ccccc1C(=O)NCCC(=O)NC1CCCCCC1 | inactive: 0.81% [at 50 µM, active compounds read high]
50 | COc1ccc(CC(=O)Nc2ccc(N3CCOCC3)cc2)cc1OC | inactive: -0.16%
51 | CC/C(=N\NC(=S)Nc1cc(C)ccc1C)c1ccc(OC(F)F)cc1 | inconclusive: 20.5%
52 | O=C(NCc1ccccc1Cl)C1CCN(S(=O)(=O)N2CCCCCC2)CC1 | inconclusive: 16.2%
53 | COc1ccccc1OCC(O)CN1CCN(CC(=O)Nc2c(C)cccc2C)CC1 (centres undefined) | inactive: 3.11% and inactive: 2.01%
54 | O=C(C1CCCN(S(=O)(=O)c2cnc[nH]2)C1)N1CCN(c2ccc(Cl)cc2)CC1 (centres undefined) | inconclusive: 16.8%

Single values from the list:
inhibition, O=c1c2c(nc3nc(COc4ccccc4)[nH]n13)CCC2 is entered as inconclusive: 17%
inhibition, COc1ccc(CC(=O)Nc2ccc(N3CCOCC3)cc2)cc1OC is entered as inactive: -0.16%
inhibition, COc1ccccc1C(=O)NCCC(=O)NC1CCCCCC1 is entered as inactive: 0.81% [at 50 µM, active compounds read high]
inhibition, COc1ccccc1OCC(O)CN1CCN(CC(=O)Nc2c(C)cccc2C)CC1 (centres undefined) is entered as inactive: 3.11% and inactive: 2.01%
